Test: Profiling of oligosaccharides in cat CNS samples
Conditions: for Detection in CNS of GM1 gangliosidosis cat model: cat CNS samples

Row | Structure (SMILES) | Detection in CNS of GM1 gangliosidosis cat model | Elevation in GM1 gangliosidosis cat CNS (brain stem, cerebellum, spinal cord, frontal, occipital, parietal, temporal cortex, thalamus) [fold]
1 | CC(=O)N[C@H]1[C@H](O[C@@H]2[C@@H](OC[C@H]3O[C@@H](O[C@H]4[C@H](O)[C@@H](NC(C)=O)C(O)O[C@@H]4CO)[C@@H](O)[C@@H](O)[C@@H]3O)O[C@H](CO)[C@@H](O)[C@@H]2O)O[C@H](CO)[C@@H](O[C@@H]2O[C@H](CO)[C@H](O)[C@H](O)[C@H]2O)[C@@H]1O (stereo partly drawn) [H3N2a, O-β-D-galactopyranosyl-(1→4)-O-(2-acetamido-2-deoxy-β-D-glucopyranosyl)-(1→2)-O-α-D-mannopyranosyl-(1→6)-O-β-D-mannopyranosyl-(1→4)-2-acetamido-2-deoxy-α,β-D-glucopyranose] | undetectable | –
2 | CC(=O)N[C@H]1[C@H](O[C@@H]2[C@@H](O[C@@H]3[C@H](O)[C@H](O[C@H]4[C@H](O)[C@@H](NC(C)=O)C(O)O[C@@H]4CO)O[C@H](CO)[C@H]3O)O[C@H](CO)[C@@H](O)[C@@H]2O)O[C@H](CO)[C@@H](O[C@@H]2O[C@H](CO)[C@H](O)[C@H](O)[C@H]2O)[C@@H]1O (stereo partly drawn) [H3N2b, O-β-D-galactopyranosyl-(1→4)-O-(2-acetamido-2-deoxy-β-D-glucopyranosyl)-(1→2)-O-α-D-mannopyranosyl-(1→3)-O-β-D-mannopyranosyl-(1→4)-2-acetamido-2-deoxy-α,β-D-glucopyranose] | detectable | > 100
